Where a chain is given by its changes, count along the chain named. Names and notes keep the numbering of the source. These are yes or no findings as the source states them, for the method shown. For some assays here: In cells and extracts the contact can be indirect. Some entries that bind do so weakly or less than the wild type. Tags and fused reporters may be left off the sequences shown.
Tests used:
[1] = target: UGT2B7 fused with a C-terminal hemagglutinin tag (UGT2B7-HA), expressed in COS-1 cells (UniProt P16662); test: non-reducing, non-heated SDS-PAGE with western blot; cell lysates in RIPA buffer (50 μg) mixed with SDS sample buffer without 2-mercaptoethanol and without the heating step (90 °C, 3 min), 7.5% gel, room temperature, 70 to 150 min; western blot with anti-HA or anti-UGT2B7; SDS-stable oligomer bands, greatly decreased when the reducing agent is added
[2] = target: UGT2B7 fused with a C-terminal hemagglutinin tag (UGT2B7-HA), expressed in COS-1 cells (UniProt P16662); test: cross-linking; living COS-1 cells 48 h after transfection treated with 1 mM DSS or DSP in PBS for 30 min, quenched with 10 mM Tris-HCl pH 7.5, then lysed; SDS-PAGE with or without reducing agent, western blot with anti-HA and anti-UGT2B7; DMSO as control
[3] = target: UGT2B7-HA expressed in HepG2 cells (UniProt P16662); test: non-reducing, non-heated SDS-PAGE with western blot; cell lysates in RIPA buffer (50 μg) mixed with SDS sample buffer without 2-mercaptoethanol and without the heating step (90 °C, 3 min), 7.5% gel, room temperature, 70 to 150 min; western blot with anti-HA or anti-UGT2B7; SDS-stable oligomer bands, greatly decreased when the reducing agent is added
[4] = target: UGT2B7 N1 mutant (Δ253–529), HA-tagged (UniProt P16662); test: as above
[5] = target: UGT2B7 C1 mutant (Δ24–200, TM), HA-tagged (UniProt P16662); test: as above
[6] = target: UGT2B7-HA C282A mutant (WT C282A) (UniProt P16662); test: as above
[7] = target: UGT2B7 C1 C282A mutant, HA-tagged (UniProt P16662); test: as above
[8] = target: full-length HA-tag-free UGT2B7 C127/156/282A (UniProt P16662); test: as above

B1: UGT2B7 fused with a C-terminal hemagglutinin tag (UGT2B7-HA), expressed in COS-1 cells (enzyme, UniProt P16662 24-529)
chain: GKVLVWAAEYSHWMNIKTILDELIQRGHEVTVLASSASILFDPNNSSALKIEIYPTSLTKTELENFIMQQIKRWSDLPKDTFWLYFSQVQEIMSIFGDITRKFCKDVVSNKKFMKKVQESRFDVIFADAIFPCSELLAELFNIPFVYSLSFSPGYTFEKHSGGFIFPPSYVPVVMSELTDQMTFMERVKNMIYVLYFDFWFEIFDMKKWDQFYSEVLGRPTTLSETMGKADVWLIRNSWNFQFPYPLLPNVDFVGGLHCKPAKPLPKEMEDFVQSSGENGVVVFSLGSMVSNMTEERANVIASALAQIPQKVLWRFDGNKPDTLGLNTRLYKWIPQNDLLGHPKTRAFITHGGANGIYEAIYHGIPMVGIPLFADQPDNIAHMKARGAAVRVDFNTMSSTDLLNALKRVINDPSYKENVMKLSRIQHDQPVKPLDRAVFWIEFVMRHKGAKHLRVAAHDLTWFQYHSLDVIGFLLVCVATVIFIVTKCCLFCFWKFARKAKKGKND
- binding [1]: binds
- binding [2]: binds

B2: UGT2B7-HA expressed in HepG2 cells (enzyme, UniProt P16662 24-529)
chain: B1 chain
- binding [3]: binds

B3: UGT2B7 N1 mutant (Δ253–529), HA-tagged (domain or fragment, UniProt P16662 24-252)
chain: GKVLVWAAEYSHWMNIKTILDELIQRGHEVTVLASSASILFDPNNSSALKIEIYPTSLTKTELENFIMQQIKRWSDLPKDTFWLYFSQVQEIMSIFGDITRKFCKDVVSNKKFMKKVQESRFDVIFADAIFPCSELLAELFNIPFVYSLSFSPGYTFEKHSGGFIFPPSYVPVVMSELTDQMTFMERVKNMIYVLYFDFWFEIFDMKKWDQFYSEVLGRPTTLSETMGK
- binding [4]: binds

B4: UGT2B7 C1 mutant (Δ24–200, TM), HA-tagged (domain or fragment, UniProt P16662)
chain: LTDQMTFMERVKNMIYVLYFDFWFEIFDMKKWDQFYSEVLGRPTTLSETMGKADVWLIRNSWNFQFPYPLLPNVDFVGGLHCKPAKPLPKEMEDFVQSSGENGVVVFSLGSMVSNMTEERANVIASALAQIPQKVLWRFDGNKPDTLGLNTRLYKWIPQNDLLGHPKTRAFITHGGANGIYEAIYHGIPMVGIPLFADQPDNIAHMKARGAAVRVDFNTMSSTDLLNALKRVINDPSYKENVMKLSRIQHDQPVKPLDRAVFWIEFVMRHKGAKHLRVAAHDLTWFQYHSLD
- binding [5]: binds

B5: UGT2B7-HA C282A mutant (WT C282A) (enzyme, UniProt P16662 24-529)
chain: B1 chain with C259A
- binding [6]: binds

B6: UGT2B7 C1 C282A mutant, HA-tagged (domain or fragment, UniProt P16662)
chain: B4 chain with C82A
- binding [7]: no binding

B7: full-length HA-tag-free UGT2B7 C127/156/282A (enzyme, UniProt P16662 24-529)
chain: B1 chain with C104A, C133A, C259A
- binding [8]: no binding
